This note sets out measurements from patent US20110202328A1, “System for the determination of selective absorbent molecules through predictive correlations” (ExxonMobil Research and Engineering Company, priority 2009, published 2011).

The nature of the data set: Experimental H2S selectivity of the new dataset of 22 compounds. The following applies: at the loading printed per compound in column 'Loadings in %'.

For the compound `CC(C)(C)NCCOCCO` [Compound 1], the “Experimental Selectivity values” was 15.4. As to `CC(C)(C)NCCOCCNC(C)(C)C` [Compound 2], the “Experimental Selectivity values” stood at 16.7. On to `CC(C)(C)NCCNC(C)(C)C` [Compound 3], for which the “Experimental Selectivity values” was 26.2. As for `CC(C)(C)NCS(=O)(=O)[O-].[Na+]` [Compound 4], the “Experimental Selectivity values” was determined as 14.4. On to `CC(C)(C)NCCS(=O)(=O)[O-].[Na+]` [Compound 5], for which the “Experimental Selectivity values” turned out to be 34.9. As for `CC(C)(C)NCCCS(=O)(=O)[O-].[Na+]` [Compound 6], the figure is 20.4; as for `CC(C)(C)NCCCS(=O)(=O)O` [Compound 7], 1.2. As to `CC(C)(C)NCCP(=O)(O)O` [Compound 8], the “Experimental Selectivity values” amounted to 0.6. Turning to `CC(C)(C)NCCCP(=O)(O)O` [Compound 9], the “Experimental Selectivity values” came to 0.4. Take `CC(C)(C)NCCCP(=O)([O-])[O+]=[K]` [Compound 10]: the “Experimental Selectivity values” is reported as 84.5. As for `CC(C)(C)NCCCCP(=O)(O)O` [Compound 11], the “Experimental Selectivity values” was 0.8. As for `CC(C)(C)NCCO` [Compound 17], the figure is 26.7. The same measure for `CC(C)(C)N(CCO)CCO` [Compound 18]: 49.8; for `CC(C)(C)NCC(O)CO` (stereo not drawn) [Compound 19]: 78.9; for `CC(C)(C)NCOCCOCCO` [Compound 20]: 56.01. Consider `CC(C)(C)NCCOCCOCCO` [Compound 21], for which the “Experimental Selectivity values” came to 75.4.

As for `CC(C)(C)NCOCCOCCOCCO` [Compound 22], the “Experimental Selectivity values” came out at 64.4. Consider N—Bu4^+ OH^- [Compound 16], for which the “Experimental Selectivity values” was found to be 35.9. The same measure for N—Et4^+ OH^− [Compound 14]: 70.7. As for N—Me4^+ OH^− [Compound 13], the figure is 107.5. For N—Pr4^+ OH^− [Compound 15], the “Experimental Selectivity values” amounted to 78.7.
